Results deposited as PubChem BioAssay AID720705 (Peter MacCallum Cancer Centre, 2013).
This is an unselected part of 200 reagents. In the full data, 116 (58%) were called active. 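Negative fold changes mean less ERK phosphorylation; hits count in both directions; calls are per gene.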 Reagents against one gene are numbered here.

- Screen: 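Retest of 50 candidate kinases for effects on angiotensin II–triggered EGFR signalling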 (follow-up of hits)
- Cell system: human HMEC-LST-AT1R mammary epithelial cells
- Reagent: single siRNA against human genes, 25 nM per duplex
- Time to read-out: 72 h after transfection
- Treatment: angiotensin II stimulation; dose and duration not given
- Measurement: 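ERK1/2 phosphorylation after angiotensin II, read by AlphaScreen SureFire per well, as signed fold change against averaged mock and GFP siRNA wells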
- Scale: duplexes agreeing on an effect (of 4): higher = more duplexes of this gene agree on an effect; signed phospho-ERK fold change vs controls: higher = more ERK phosphorylation than controls; negative values are decreases
- Hit rule: 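Gene called active when two or more of its four siRNAs each shift ERK phosphorylation beyond 1.5-fold the same way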
- Meaning of the calls: active = high/medium confidence (2-4 of 4 duplexes); inactive = low confidence (0-1 of 4 duplexes)

With FES #1, what was measured?
duplexes agreeing on an effect (of 4): 3; signed phospho-ERK fold change vs controls: -2.62; Outcome: active

With FES #2, how do the results read?
duplexes agreeing on an effect (of 4): 3; signed phospho-ERK fold change vs controls: 1.2; Outcome: active

With FES #3, what does the deposit list?
duplexes agreeing on an effect (of 4): 3; signed phospho-ERK fold change vs controls: -2.23; Outcome: active

With FES #4, how do the results read?
duplexes agreeing on an effect (of 4): 3; signed phospho-ERK fold change vs controls: -2.51; Outcome: active

For TAOK3 #1, how do the results read?
duplexes agreeing on an effect (of 4): 1; signed phospho-ERK fold change vs controls: 1.3; Outcome: inactive

How did the screen score TAOK3 #2?
duplexes agreeing on an effect (of 4): 1; signed phospho-ERK fold change vs controls: -1.11; Outcome: inactive

What is on record for TAOK3 #3?
duplexes agreeing on an effect (of 4): 1; signed phospho-ERK fold change vs controls: 0.042; Outcome: inactive

Which result is listed for TAOK3 #4?
duplexes agreeing on an effect (of 4): 1; signed phospho-ERK fold change vs controls: -1.52; Outcome: inactive

With EPHB3 #1, what was measured?
duplexes agreeing on an effect (of 4): 1; signed phospho-ERK fold change vs controls: 0.026; Outcome: inactive

What is on record for EPHB3 #2?
duplexes agreeing on an effect (of 4): 1; signed phospho-ERK fold change vs controls: -1.25; Outcome: inactive

Which result is listed for EPHB3 #3?
duplexes agreeing on an effect (of 4): 1; signed phospho-ERK fold change vs controls: -2.54; Outcome: inactive

What did the screen give for EPHB3 #4?
duplexes agreeing on an effect (of 4): 1; signed phospho-ERK fold change vs controls: 1.22; Outcome: inactive

Which result is listed for STYK1 #1?
duplexes agreeing on an effect (of 4): 2; signed phospho-ERK fold change vs controls: 1.13; Outcome: active

With STYK1 #2, what does the deposit list?
duplexes agreeing on an effect (of 4): 2; signed phospho-ERK fold change vs controls: -1.22; Outcome: active

For STYK1 #3, how do the results read?
duplexes agreeing on an effect (of 4): 2; signed phospho-ERK fold change vs controls: -2.96; Outcome: active

How did the screen score STYK1 #4?
duplexes agreeing on an effect (of 4): 2; signed phospho-ERK fold change vs controls: -2.07; Outcome: active

For PI4KA #1, how do the results read?
duplexes agreeing on an effect (of 4): 2; signed phospho-ERK fold change vs controls: 1.76; Outcome: active

Which result is listed for PI4KA #2?
duplexes agreeing on an effect (of 4): 2; signed phospho-ERK fold change vs controls: -2.2; Outcome: active

For PI4KA #3, what does the deposit list?
duplexes agreeing on an effect (of 4): 2; signed phospho-ERK fold change vs controls: -1.82; Outcome: active

What did the screen give for PI4KA #4?
duplexes agreeing on an effect (of 4): 2; signed phospho-ERK fold change vs controls: 1.27; Outcome: active

Sorted by “signed phospho-ERK fold change vs controls” (lowest first): some entries from above.
EPHB3 #3: duplexes agreeing on an effect (of 4) = 1; signed phospho-ERK fold change vs controls = -2.54; Outcome = inactive
TAOK3 #4: duplexes agreeing on an effect (of 4) = 1; signed phospho-ERK fold change vs controls = -1.52; Outcome = inactive
EPHB3 #2: duplexes agreeing on an effect (of 4) = 1; signed phospho-ERK fold change vs controls = -1.25; Outcome = inactive
EPHB3 #1: duplexes agreeing on an effect (of 4) = 1; signed phospho-ERK fold change vs controls = 0.026; Outcome = inactive
TAOK3 #3: duplexes agreeing on an effect (of 4) = 1; signed phospho-ERK fold change vs controls = 0.042; Outcome = inactive

The list goes on:
For PRKCH #1, what does the deposit list?
duplexes agreeing on an effect (of 4): 1; signed phospho-ERK fold change vs controls: -0.013; Outcome: inactive

What did the screen give for PRKCH #2?
duplexes agreeing on an effect (of 4): 1; signed phospho-ERK fold change vs controls: 1.67; Outcome: inactive

How did the screen score PRKCH #3?
duplexes agreeing on an effect (of 4): 1; signed phospho-ERK fold change vs controls: -1.24; Outcome: inactive

Which result is listed for PRKCH #4?
duplexes agreeing on an effect (of 4): 1; signed phospho-ERK fold change vs controls: -2.42; Outcome: inactive

What is on record for PSKH2 #1?
duplexes agreeing on an effect (of 4): 2; signed phospho-ERK fold change vs controls: -1.73; Outcome: active

Which result is listed for PSKH2 #2?
duplexes agreeing on an effect (of 4): 2; signed phospho-ERK fold change vs controls: 1.58; Outcome: active

With PSKH2 #3, what does the deposit list?
duplexes agreeing on an effect (of 4): 2; signed phospho-ERK fold change vs controls: -2.12; Outcome: active

How did the screen score PSKH2 #4?
duplexes agreeing on an effect (of 4): 2; signed phospho-ERK fold change vs controls: -1.04; Outcome: active

For GRK1 #1, what does the deposit list?
duplexes agreeing on an effect (of 4): 0; signed phospho-ERK fold change vs controls: 1.35; Outcome: inactive

How did the screen score GRK1 #2?
duplexes agreeing on an effect (of 4): 0; signed phospho-ERK fold change vs controls: 1.41; Outcome: inactive

With GRK1 #3, how do the results read?
duplexes agreeing on an effect (of 4): 0; signed phospho-ERK fold change vs controls: 1.28; Outcome: inactive

What did the screen give for GRK1 #4?
duplexes agreeing on an effect (of 4): 0; signed phospho-ERK fold change vs controls: -1.17; Outcome: inactive

With HIPK3 #1, what does the deposit list?
duplexes agreeing on an effect (of 4): 1; signed phospho-ERK fold change vs controls: -1.17; Outcome: inactive

With HIPK3 #2, how do the results read?
duplexes agreeing on an effect (of 4): 1; signed phospho-ERK fold change vs controls: 1.05; Outcome: inactive

With HIPK3 #3, how do the results read?
duplexes agreeing on an effect (of 4): 1; signed phospho-ERK fold change vs controls: 1.26; Outcome: inactive

How did the screen score HIPK3 #4?
duplexes agreeing on an effect (of 4): 1; signed phospho-ERK fold change vs controls: 2.55; Outcome: inactive

For PRKCD #1, what was measured?
duplexes agreeing on an effect (of 4): 2; signed phospho-ERK fold change vs controls: 1.08; Outcome: active

How did the screen score PRKCD #2?
duplexes agreeing on an effect (of 4): 2; signed phospho-ERK fold change vs controls: 0.03; Outcome: active

What did the screen give for PRKCD #3?
duplexes agreeing on an effect (of 4): 2; signed phospho-ERK fold change vs controls: -2; Outcome: active

With PRKCD #4, what was measured?
duplexes agreeing on an effect (of 4): 2; signed phospho-ERK fold change vs controls: -2.49; Outcome: active

Which result is listed for PLK3 #1?
duplexes agreeing on an effect (of 4): 1; signed phospho-ERK fold change vs controls: -1.12; Outcome: inactive

With PLK3 #2, how do the results read?
duplexes agreeing on an effect (of 4): 1; signed phospho-ERK fold change vs controls: -1.04; Outcome: inactive

How did the screen score PLK3 #3?
duplexes agreeing on an effect (of 4): 1; signed phospho-ERK fold change vs controls: 1.22; Outcome: inactive

What is on record for PLK3 #4?
duplexes agreeing on an effect (of 4): 1; signed phospho-ERK fold change vs controls: -2.13; Outcome: inactive

What did the screen give for RPS6KA4 #1?
duplexes agreeing on an effect (of 4): 1; signed phospho-ERK fold change vs controls: -1.09; Outcome: inactive

Which result is listed for RPS6KA4 #2?
duplexes agreeing on an effect (of 4): 1; signed phospho-ERK fold change vs controls: 1.21; Outcome: inactive

With RPS6KA4 #3, what does the deposit list?
duplexes agreeing on an effect (of 4): 1; signed phospho-ERK fold change vs controls: -2.66; Outcome: inactive

With RPS6KA4 #4, what does the deposit list?
duplexes agreeing on an effect (of 4): 1; signed phospho-ERK fold change vs controls: 1.25; Outcome: inactive

What is on record for FGFR3 #1?
duplexes agreeing on an effect (of 4): 2; signed phospho-ERK fold change vs controls: -0.106; Outcome: active

With FGFR3 #2, how do the results read?
duplexes agreeing on an effect (of 4): 2; signed phospho-ERK fold change vs controls: -1.57; Outcome: active

With FGFR3 #3, what does the deposit list?
duplexes agreeing on an effect (of 4): 2; signed phospho-ERK fold change vs controls: -3.69; Outcome: active

What is on record for FGFR3 #4?
duplexes agreeing on an effect (of 4): 2; signed phospho-ERK fold change vs controls: 1.28; Outcome: active
